This assay has as its target DISP-FLAG (Dispatched, SHH deployment protein, FLAG-tagged) (UniProt Q3TDN0). The assay is described as follows: co-IP.

Chains of the proteins cited; added tags and fusions are not shown. Lines headed by an entry give the natural chain unless they say otherwise; changes in a name come on top.
UniProt Q3TDN0: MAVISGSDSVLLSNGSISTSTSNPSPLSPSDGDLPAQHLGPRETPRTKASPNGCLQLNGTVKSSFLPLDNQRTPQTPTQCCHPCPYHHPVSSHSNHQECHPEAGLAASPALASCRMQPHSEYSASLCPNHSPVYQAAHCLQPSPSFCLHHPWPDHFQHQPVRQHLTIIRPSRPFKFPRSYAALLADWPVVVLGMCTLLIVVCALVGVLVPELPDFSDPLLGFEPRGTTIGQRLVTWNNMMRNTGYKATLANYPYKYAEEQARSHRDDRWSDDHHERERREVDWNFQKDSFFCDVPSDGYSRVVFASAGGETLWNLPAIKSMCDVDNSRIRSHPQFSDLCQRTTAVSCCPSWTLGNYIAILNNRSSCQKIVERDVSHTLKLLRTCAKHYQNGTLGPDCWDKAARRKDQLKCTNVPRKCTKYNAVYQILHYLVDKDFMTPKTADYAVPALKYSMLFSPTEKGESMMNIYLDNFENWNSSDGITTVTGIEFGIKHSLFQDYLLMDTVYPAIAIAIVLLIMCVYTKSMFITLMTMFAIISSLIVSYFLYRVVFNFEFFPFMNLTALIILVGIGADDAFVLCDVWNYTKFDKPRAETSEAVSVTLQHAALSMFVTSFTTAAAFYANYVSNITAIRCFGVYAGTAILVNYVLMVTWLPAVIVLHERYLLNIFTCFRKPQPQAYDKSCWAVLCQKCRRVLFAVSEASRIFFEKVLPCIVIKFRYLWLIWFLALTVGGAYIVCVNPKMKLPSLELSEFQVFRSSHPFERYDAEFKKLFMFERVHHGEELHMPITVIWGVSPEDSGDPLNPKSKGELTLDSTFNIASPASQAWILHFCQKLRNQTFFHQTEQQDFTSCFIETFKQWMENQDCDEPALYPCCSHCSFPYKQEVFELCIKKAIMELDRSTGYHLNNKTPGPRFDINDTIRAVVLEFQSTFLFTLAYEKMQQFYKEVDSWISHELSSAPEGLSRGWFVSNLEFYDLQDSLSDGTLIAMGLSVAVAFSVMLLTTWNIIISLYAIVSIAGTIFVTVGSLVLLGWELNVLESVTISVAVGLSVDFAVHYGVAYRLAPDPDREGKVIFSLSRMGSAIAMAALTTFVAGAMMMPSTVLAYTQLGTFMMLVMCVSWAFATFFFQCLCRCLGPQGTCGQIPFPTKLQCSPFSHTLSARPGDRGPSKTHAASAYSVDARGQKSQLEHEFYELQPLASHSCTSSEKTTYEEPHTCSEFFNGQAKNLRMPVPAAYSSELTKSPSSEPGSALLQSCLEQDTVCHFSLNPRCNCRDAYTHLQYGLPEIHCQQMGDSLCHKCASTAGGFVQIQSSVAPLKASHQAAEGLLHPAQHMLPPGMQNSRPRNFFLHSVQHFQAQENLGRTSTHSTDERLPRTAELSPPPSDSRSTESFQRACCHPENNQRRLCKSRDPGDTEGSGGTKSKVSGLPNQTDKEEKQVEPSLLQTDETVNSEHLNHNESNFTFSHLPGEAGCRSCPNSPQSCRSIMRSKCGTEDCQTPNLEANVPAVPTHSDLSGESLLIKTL
UniProt Q62226: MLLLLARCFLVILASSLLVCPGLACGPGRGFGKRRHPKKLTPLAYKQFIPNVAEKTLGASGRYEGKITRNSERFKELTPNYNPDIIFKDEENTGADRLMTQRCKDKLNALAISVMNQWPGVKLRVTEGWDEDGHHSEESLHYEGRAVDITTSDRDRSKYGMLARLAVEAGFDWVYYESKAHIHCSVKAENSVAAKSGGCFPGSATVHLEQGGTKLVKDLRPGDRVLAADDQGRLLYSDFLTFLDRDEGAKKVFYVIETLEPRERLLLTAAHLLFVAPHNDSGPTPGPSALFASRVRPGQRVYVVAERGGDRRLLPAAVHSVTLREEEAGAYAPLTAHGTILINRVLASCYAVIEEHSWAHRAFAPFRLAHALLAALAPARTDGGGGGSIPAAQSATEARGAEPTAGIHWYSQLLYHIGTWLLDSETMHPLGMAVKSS

Results are given in words; binding and its absence hold for the method and conditions named. In cells and extracts the contact can be indirect. Binding calls can cover weak binding; strength is not graded here.

Consider “Sonic Hedgehog (SHH) (from UniProt Q62226) (ligand)”, for which the binding result was “binds”.
